Reference: article PMC10903463
Positions count from the first letter of the chain named. These are yes or no findings as the source states them, for the method shown. In cells and extracts the contact can be indirect. These calls come from enrichment with a bait or labelling near it, and not all partners need be listed. Tags and fused reporters may be left off the sequences shown. Blank lines part the entries; values can stand above or below the molecule they belong to.

The chains behind the UniProt entries cited, without tags or fusion partners. Where a name states a change or a piece, a line headed by the entry shows the natural chain unless it says otherwise. A line that says so, or that is headed by a name, gives the form on record, which may keep a tag or linker.
UniProt P0DMW0: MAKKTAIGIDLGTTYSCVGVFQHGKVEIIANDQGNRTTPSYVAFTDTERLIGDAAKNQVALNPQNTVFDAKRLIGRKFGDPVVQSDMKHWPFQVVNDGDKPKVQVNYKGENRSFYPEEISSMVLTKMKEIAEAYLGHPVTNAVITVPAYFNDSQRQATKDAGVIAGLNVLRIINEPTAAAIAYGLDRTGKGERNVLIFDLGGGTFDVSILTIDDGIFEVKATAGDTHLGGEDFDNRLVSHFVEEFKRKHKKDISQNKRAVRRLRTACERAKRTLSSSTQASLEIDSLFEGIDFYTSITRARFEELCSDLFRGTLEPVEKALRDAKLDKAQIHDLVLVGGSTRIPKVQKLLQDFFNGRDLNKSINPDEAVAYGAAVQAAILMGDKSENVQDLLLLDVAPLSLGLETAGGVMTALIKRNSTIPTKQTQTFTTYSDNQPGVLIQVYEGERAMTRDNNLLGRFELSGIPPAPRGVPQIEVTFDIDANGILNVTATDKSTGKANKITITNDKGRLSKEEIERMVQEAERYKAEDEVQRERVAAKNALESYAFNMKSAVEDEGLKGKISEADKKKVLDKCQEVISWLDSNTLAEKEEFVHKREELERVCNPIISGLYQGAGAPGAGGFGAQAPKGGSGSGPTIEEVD
UniProt P11142: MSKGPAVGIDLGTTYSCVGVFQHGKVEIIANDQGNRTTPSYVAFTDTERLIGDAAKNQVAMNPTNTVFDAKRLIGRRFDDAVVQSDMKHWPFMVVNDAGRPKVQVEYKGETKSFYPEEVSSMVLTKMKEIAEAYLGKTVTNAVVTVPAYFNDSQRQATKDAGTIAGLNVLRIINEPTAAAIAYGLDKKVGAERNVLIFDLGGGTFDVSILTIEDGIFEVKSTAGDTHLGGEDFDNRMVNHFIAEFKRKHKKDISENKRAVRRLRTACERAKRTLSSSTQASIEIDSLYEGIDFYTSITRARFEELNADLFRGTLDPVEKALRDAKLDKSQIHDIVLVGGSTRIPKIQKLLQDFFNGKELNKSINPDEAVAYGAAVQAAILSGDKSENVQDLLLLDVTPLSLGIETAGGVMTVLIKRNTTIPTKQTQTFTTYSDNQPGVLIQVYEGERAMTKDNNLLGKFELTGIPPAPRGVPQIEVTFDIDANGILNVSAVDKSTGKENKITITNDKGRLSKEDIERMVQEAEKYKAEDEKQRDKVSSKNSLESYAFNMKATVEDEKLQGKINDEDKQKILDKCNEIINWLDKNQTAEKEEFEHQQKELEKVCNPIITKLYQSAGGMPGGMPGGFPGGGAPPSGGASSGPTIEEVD
UniProt P63045: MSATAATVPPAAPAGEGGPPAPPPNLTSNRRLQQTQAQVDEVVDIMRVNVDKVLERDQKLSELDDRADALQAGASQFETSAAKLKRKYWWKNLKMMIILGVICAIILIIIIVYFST
SNAP-25 (P60881-2, form named): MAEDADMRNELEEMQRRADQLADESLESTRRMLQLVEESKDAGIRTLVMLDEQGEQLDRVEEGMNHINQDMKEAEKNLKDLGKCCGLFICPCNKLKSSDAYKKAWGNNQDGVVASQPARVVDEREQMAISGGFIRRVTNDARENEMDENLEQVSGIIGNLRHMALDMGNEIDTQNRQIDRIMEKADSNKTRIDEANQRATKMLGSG

Experiments:
[1] = molecular target: T1, L115R CSP-V5-miniTurbo (human) (UniProt Q9H3Z4); assay: proximity labelling; BioID in living PC12 cells stably expressing WT or L115R CSP-V5-miniTurbo; pull-down of biotinylated proteins on streptavidin beads, western blot of the bound fraction; miniTurbo control and biotin-free control
T1 sequence: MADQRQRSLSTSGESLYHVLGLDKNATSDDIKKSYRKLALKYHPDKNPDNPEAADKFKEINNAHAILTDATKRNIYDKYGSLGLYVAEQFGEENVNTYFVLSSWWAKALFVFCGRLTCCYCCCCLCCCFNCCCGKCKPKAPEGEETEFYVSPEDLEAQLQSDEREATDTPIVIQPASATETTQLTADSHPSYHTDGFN

[2] = molecular target: T2, WT CSP-V5-miniTurbo (human) (UniProt Q9H3Z4); assay: as above
T2 sequence: T1 sequence with R115L

[3] = molecular target: T1, L115R CSP-V5-miniTurbo (human); assay: proximity labelling; BioID in living PC12 cells stably expressing WT or L115R CSP-V5-miniTurbo; 100 μM biotin overnight; RIPA lysis, streptavidin beads, on-bead tryptic digestion, LC-MS with label-free quantification, three biological repeats; compared with miniTurbo control and no biotin control
[4] = molecular target: T2, WT CSP-V5-miniTurbo (human); assay: as above
[5] = molecular target: T1, L115R CSP-V5-miniTurbo (human); assay: proximity labelling; BioID in living HEK293T cells transiently transfected with WT or L115R CSP-V5-miniTurbo or the miniTurbo control; biotin-affinity purification on Neutravidin beads, western blot for Hsc70
[6] = molecular target: T2, WT CSP-V5-miniTurbo (human); assay: as above

binding [1]: binds
binding [2]: binds
binding [3]: binds
binding [4]: binds
Molecule: Hsc70 (from UniProt P0DMW0 1-641)

binding [5]: binds
binding [6]: binds
Molecule: Hsc70 (from UniProt P11142 1-646)

binding [2]: binds
binding [4]: binds
Molecule: VAMP2 (from UniProt P63045 1-116)

binding [4]: binds
B1: Rab23 (protein, UniProt D3ZRM5 1-237)
chain: MLEEDMEVAIKMVVVGNGAVGKSSMIQRYCKGIFTKDYKKTIGVDFLERQIQVNDEDVRLMLWDTAGQEEFDAITKAYYRGAQACVLVFSTTDRESFEAISSWREKVVAEVGDIPTALVQNKIDLLDDSCIKNEEAEGLAKRLKLRFYRTSVKEDLNVNEVFKYLAEKHLQKLKQQVADEPEQTHSSSNKIGVFNASVGSHLGQNSSSLNGGDVINLRPNKQRTKKTRNPFSSCSVP

binding [4]: binds
B4: Fam129b (protein, UniProt B4F7E8 1-747)
chain: MGDVLSTHLDDARRQNIAEKTEKILREFLRFYEDQYGVSLFNSMRHEIEGTGPPQAQLLWRKVPLDERIIFSGNLFQYQEDNKKWRNRFSLVPHNYGLVLYENKVAYERQIPPRAVINSAGYKVLTSLDQYLELVGNSLPGTTSKSGSTPILKCPTQFPLILWHPYARHYYFCMMTEAEQDKWQAVLQDCVRHCNNGIPENSKVEGPAFTDAIRMYRQSKEQYGTWEMLCGNEVQILSNLVMEELGPALKTELGPRLKGKPQERQRQWIQISDAVYRLVFEQAKVHFEEVLCKLQLARPAMEAVIRTDMDQIITSKEHLASKIRAFILPKAEVCVRNHVQPYIPSILEALMVPTSQGFTEVRDVFFKEVTDMNLNVINEGGIDKLGEYMEKLSQLAYHPLKMQSCYEKMEPLRLDGLQQRFDVSSTSVFKQRAQIHMREQMDNAVYTFETLLHQELGKGPTKEELCKSIQRILERVLKKYDYDSSSVRKRFFREALLQITIPFLLKKLAPTCKSELPRFQELIFEDFARFILVENTYEEVVLQTVMKDILQAVKEAAVQRKHNLYRDSVVLHNSDPNLHLLAEGAPIDWGEQYGDGGDGSDSGGSPCPSEAATLTEKRRRAKQVVSVVQDEESGLPFEAGSEPPSPASPDNVTELRGLLAQDLQAESSPPASPLLNGAPVQESPQPMTVLEASPPASPLRHLPPGKAVDLEPPKPSDQETGEKVSSPGSRPPIHTTTEDSAGVQTEF

binding [4]: binds
B5: Tub (protein, UniProt O88808 1-505)
chain: MTSKPHSDWIPYSVLDDEGSNLRQQKLDRQRALLEQKQKKKRQEPLMVQANADGRPRSRRARQSEEQAPLVESYLSSSGSTSYQVQEADSLASVQPGATRPPAPASAKKTKGAAASGGQGGAPRKEKKGKHKGTSGPATLAEDKSEAQGPVQILTVGQSDHAKDAGETAAGGGAQPSGQDLRATMQRKGISSSMSFDEEEDEDENSSSSSQLNSNTRPSSATSRKSTREAASAPSPAAPEPPVDIEVQDLEEFALRPAPQGITIKCRITRDKKGMDRGMYPTYFLHLDREDGKKVFLLAGRKRKKSKTSNYLISVDPTDLSRGGDSYIGKLRSNLMGTKFTVYDNGVNPQKASSSTLESGTLRQELAAVCYETNVLGFKGPRKMSVIVPGMNMVHERVCIRPRNEHETLLARWQNKNTESIIELQNKTPVWNDDTQSYVLNFHGRVTQASVKNFQIIHGNDPDYIVMQFGRVAEDVFTMDYNYPLCALQAFAIALSSFDSKLACE

Second part, the molecule before the results:

Molecule: SNAP-25 (from UniProt P60881-2 1-206)
binding [1]: binds
binding [2]: binds
binding [4]: binds

Molecule: syntaxin-1 (rat (endogenous in PC12))
binding [2]: binds

B2: Rab3D (protein, UniProt Q63942 1-219)
chain: MASASEPPASPRDAADQNFDYMFKLLLIGNSSVGKTSFLFRYADDSFTPAFVSTVGIDFKVKTVYRHDKRIKLQIWDTAGQERYRTITTAYYRGAMGFLLMYDIANQESFTAVQDWATQIKTYSWDNAQVILVGNKCDLEDERVVSAEDGQRLAGDLGFEFFEASAKENINVKQVFERLVDIICDKMNESLEPSSSPGSNGKGPALGDTPPPQPSSCGC
binding [4]: binds

B3: syntaxin-7 (protein, UniProt O70257 1-261)
chain: MSYTPGIGGDPAQLAQRISSNIQKITQCSAEIQRTLNQLGTPQDTPELRQQLQQEQQYTNQLAKETDKYIKEFGFLPTTPSEQRQRKIQKDRLVAEFTTALTNFQKVQRQAAEREKEFVARVRASSRVSGGFPEDSSKEKNFVSWESQTQPQVQVQDEEITEDDLRLIHERESSIRQLEADIMDINEIFKDLGMMIHEQGDVIDSIEANVESAEVHVQQANQQLSRAANYQRKSRKTLCIIILILVVGIVIIFFIVWGLKG
binding [4]: binds

B6: Arhgdia (protein, UniProt Q5XI73 1-204)
chain: MAEQEPTAEQLAQIAAENEEDEHSVNYKPPAQKSIQEIQELDKDDESLRKYKEALLGRVAVSADPNVPNVIVTRLTLVCSTAPGPLELDLTGDLESFKKQSFVLKEGVEYRIKISFRVNREIVSGMKYIQHTYRKGVKIDKTDYMVGSYGPRAEEYEFLTPMEEAPKGMLARGSYNIKSRFTDDDKTDHLSWEWNLTIKKEWKD
binding [4]: binds

B7: SIDT2 (protein, UniProt D3ZEH5 16-832)
chain: VESHLGALGPKNVSQKDAEFERTYADDVNSELVNIYTFNHTVTRNRTEGVRVSVNVLNKQKGAPLLFVVRQKEAVVSFQVPLILRGLYQRKYLYQKVERTLCQPPTKNESEIQFFYVDVSTLSPVNTTYQLRVNRVDNFVLRTGELFTFNTTAAQPQYFKYEFPDGVDSVIVKVTSKKAFPCSVISIQDVLCPVYDLDNNVAFIGMYQTMTKKAAITVQRKDFPSNSFYVVVVVKTEDQACGGSLPFYPFVEDEPVDQGHRQKTLSVLVSQAVTSEAYVGGMLFCLGIFLSFYLLTVLLACWENWRQRKKTLLVAIDRACPESGHPRVLADSFPGSAPYEGYNYGSFENGSGSTDGLVESTGSGDLSYSYQDRSFDPVGARPRLDSMSSVEEDDYDTLTDIDSDKNVIRTKQYLCVADLARKDKRVLRKKYQIYFWNIATIAVFYALPVVQLVITYQTVVNVTGNQDICYYNFLCAHPLGNLSAFNNILSNLGYILLGLLFLLIILQREINHNRALLRNDLYALECGIPKHFGLFYAMGTALMMEGLLSACYHVCPNYTNFQFDTSFMYMIAGLCMLKLYQKRHPDINASAYSAYACLAIVIFFSVLGVVFGKGNTAFWIVFSVIHIISTLLLSTQLYYMGRWKLDSGIFRRILHVLYTDCIRQCSGPLYTDRMVLLVMGNIINWSLAAYGLIMRPNDFASYLLAIGICNLLLYFAFYIIMKLRSGERIKLIPLLCIVCTSVVWGFALFFFFQGLSTWQKTPAESREHNRDCILLDFFDDHDIWHFLSSIAMFGSFLVLLTLDDDLDTVQRDKIYVF
binding [3]: binds
binding [4]: binds

B8: vti1b (protein, UniProt P58200 1-232)
chain: MATSAASSEHFEKLHEIFRGLLEDLQGVPERLLGTAGTEEKKKLVRDFDEKQQEANETLAEMEEELRYAPLTFRNSMMSKLRNYRKDLAKLHREVRSTPLTATPGGRGDLKFGTYTLENEHLNRLQSQRALLLQGTESLNRATQSIERSHRIAAETDQIGSEIIEELGEQRDQLERTKSRLVNTNENLSKSRKILRSMSRKVITNKLLLSVIIVLELAILVGLVYYKFFRHH
binding [4]: binds
